Hit rate of the full screen: of about 400,000 compounds, about 13,000 (3.2%) were called active. The inconclusive results got no clear call from the source; some entries with a clear call stand among them for comparison. The call rests on the fitted dose curve; in most records, active means well fitted cell-killing curve with a large enough effect; inconclusive means small, poorly fitted or top-dose-only effect, or effect the other way; inactive means flat fitted curve, though single readings scatter. Potencies beside an inconclusive call are fits to weak or partial responses and may not hold up.
test: qHTS assay for MDR1-selective chemotherapeutics: Primary screen using the drug-selected MDR subline cells KB-V1; conditions: KB-V1 MDR cells viability, CellTiter-Glo, 72 h; series mostly up to 46.1 µM; further: nearly all actives have a fitted effect of over 60% in size
Method in brief: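 Drug-selected KB-V1 cells, grown in DMEM lacking phenol red with 10% FBS, receive compound titrations; after three days at 37 degrees C, surviving cell ATP is quantified by CellTiter-Glo luminescence and responses normalized and curve-fitted.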
Potency means the concentration at half of the fitted maximal effect.

Row | SMILES | Potency
1 | CC1CCCCN1C(=O)c1ccc(OC2CCN(S(=O)(=O)N(C)C)CC2)cc1 (stereo unspecified) | active: 23.1 µM
2 | CC(O)CN=c1cc(-c2ccccc2)oc2ccc(Cl)cc12 (stereo unspecified) | inconclusive: 13 µM [cytotoxic, partial curve, poor fit]
3 | CCOc1ccc(C(c2c(O)cc(C)n(Cc3ccco3)c2=O)N2CCN(C)CC2)cc1 (stereo unspecified) | inactive
4 | COc1cc2c(cc1OC)CN(S(=O)(=O)/C=C/c1ccccc1)CC2 | inactive
5 | Cn1nc(C(=O)NC2CCCN(Cc3ccccc3F)C2)c2ccccc2c1=O (stereo unspecified) | inconclusive: 1.46 µM [cytotoxic, full curve]
6 | COc1ccccc1NC(=O)CC(=O)CSc1nnc(-c2ccc(C)cc2)n1-c1ccccc1 | active: 13 µM
7 | Cc1cc(C)c(-c2c(N)cc(Br)cc2Br)c(N)c1 | inconclusive: 29.1 µM [cytotoxic, single point]
8 | O=C(N/N=C/c1cccc([N+](=O)[O-])c1)c1cccc(Br)c1 | inactive
9 | C=C1CCC2[C@](C)(CO)[C@H](O)CC[C@@]2(C)[C@@H]1C/C=C1\C(=O)OC[C@H]1O (stereo partly specified) | inactive
10 | O=C(Nc1ccc(Br)cc1)c1ccc(N2C(=O)C3CCCCC3C2=O)cc1 (stereo unspecified) | inconclusive: 11.6 µM [cytotoxic, partial curve, poor fit]
11 | Cc1oc(-c2cccs2)nc1CN1CCN(C2CCCC2)C(CCO)C1 (stereo unspecified) | inactive
12 | Cn1nnc2cc(C(=O)N3CCCCCC3)ccc21 | inconclusive: 18.4 µM [cytotoxic, single point]
13 | COc1ccccc1OCCCN1CCC(C(O)(c2ccccc2)c2ccccc2)CC1 | inconclusive: 8.2 µM [cytotoxic, partial curve]
14 | Cc1ccc(SCC(=O)c2c(C)nc3cc(C)ccn23)cc1 | inconclusive: 29.1 µM [cytotoxic, single point]
15 | Cc1ccc(CSc2nnc3ccc(-c4ccncc4)nn23)cc1 | inconclusive: 29.1 µM [cytotoxic, single point]
16 | CCCCNc1ccc(C(=O)OCCOCCOCCOCCOCCOCCOCCOCCOCCOC)cc1 | inconclusive: 9.2 µM [cytotoxic, partial curve]
17 | Cc1cc(C)c(C)c(S(=O)(=O)NCc2ccc(C(=O)N3CCCC3)cc2)c1C | inconclusive: 10.3 µM [cytotoxic, partial curve, poor fit]
18 | CN1CCCc2cc(C=O)ccc21 | inactive
19 | COc1ccc(C(CCNCc2ccc(N(C)C)cc2)c2ccccc2OC)cc1 (stereo unspecified) | inconclusive: 29.1 µM [cytotoxic, single point]
20 | CN(C)c1cccc2cccc(N(C)C)c12 | inconclusive: 32.6 µM [rising, single point]
21 | COc1ccc(CC2(C)OC(c3ccc(C)c([N+](=O)[O-])c3)=NN2C(C)=O)cc1 (stereo unspecified) | inconclusive: 20.6 µM [cytotoxic, single point]
22 | COc1ccc(C(C(=O)NCCC(C)C)N(CCCO)C(=O)c2snc(C(N)=O)c2N)cc1OC (stereo unspecified) | inconclusive: 29.1 µM [rising, single point]
23 | CCOC(=O)c1sc2nc(C)[nH]c(=S)c2c1C | inconclusive: 20.6 µM [cytotoxic, partial curve]

Part of the list above, in markdown.

| Row | SMILES | Potency |
| --- | --- | --- |
| 13 | COc1ccccc1OCCCN1CCC(C(O)(c2ccccc2)c2ccccc2)CC1 | inconclusive: 8.2 µM [cytotoxic, partial curve] |
| 14 | Cc1ccc(SCC(=O)c2c(C)nc3cc(C)ccn23)cc1 | inconclusive: 29.1 µM [cytotoxic, single point] |
| 15 | Cc1ccc(CSc2nnc3ccc(-c4ccncc4)nn23)cc1 | inconclusive: 29.1 µM [cytotoxic, single point] |
| 16 | CCCCNc1ccc(C(=O)OCCOCCOCCOCCOCCOCCOCCOCCOCCOC)cc1 | inconclusive: 9.2 µM [cytotoxic, partial curve] |

Further entries follow.

Row | SMILES | Potency
24 | COc1ccc(CCNc2ncnc3sc(C)cc23)cc1OC | inconclusive: 23.1 µM [cytotoxic, partial curve, poor fit]
25 | Nn1c(Cc2ccc(Br)cc2)n[nH]c1=S | inconclusive: 29.1 µM [rising, single point]
26 | CCOC(=O)c1c(CN(C)C)n(-c2ccc(C)cc2)c2cc(Br)c(O)cc12 | inconclusive: 7.31 µM [cytotoxic, partial curve, poor fit]
27 | COc1ccccc1-c1cc(C(=O)Nc2cccnc2)no1 | inconclusive: 0.0065 µM [cytotoxic, full curve, poor fit]
28 | Cc1[nH]n(-c2ccccc2)c(=O)c1N=Nc1c(O)cc(S(=O)(=O)N(C)C)c2ccccc12 | inactive
29 | COc1cccc(CN2CCN(CC(=O)Nc3ccccc3Cl)CC2)c1 | inactive
30 | Cc1ccnc(Sc2ccc([N+](=O)[O-])cc2[N+](=O)[O-])n1 | inconclusive: 29.1 µM [cytotoxic, single point]
31 | CCc1cc(CNC(=O)c2cccc(OC3CCN(S(C)(=O)=O)CC3)c2)on1 | inconclusive: 14.6 µM [cytotoxic, single point]
32 | CNc1ccc(/C=C2\COc3ccccc3C2=O)cc1[N+](=O)[O-] | inconclusive: 23.1 µM [cytotoxic, single point]
33 | CCC(=O)N1CCCc2cc(S(=O)(=O)N3CCC(C(=O)NC4CCC(C)CC4)CC3)ccc21 (stereo unspecified) | inactive
34 | COc1ccc(-n2c(CCc3ccccc3)nnc2SCC(=O)NCc2ccccc2)cc1 | inactive
35 | Cc1cc(C)cc(NC(=O)NCc2noc3ccccc23)c1 | inactive
36 | CCSc1cc(N2CCCC2)nc(-c2ccc(F)cc2)n1 | inactive
37 | Cc1ccc2nc(SCC(=O)c3c(C)[nH]c4ccccc34)[nH]c2c1 | inconclusive: 18.4 µM [cytotoxic, single point]
38 | O=C(OCc1cc(=O)n2nc(C3CC3)sc2n1)c1cccc(NC(=O)c2ccccc2Cl)c1 | inconclusive: 20.6 µM [rising, partial curve]
39 | NS(=O)(=O)c1ccc(CCNC(=O)COC(=O)c2ccc([N+](=O)[O-])o2)cc1 | inactive
40 | CCOc1ccc2c(ccc(/C=C/c3cc(C)c4cccnc4c3O)[n+]2C)c1 | inconclusive: 29.1 µM [cytotoxic, single point]
41 | Cc1ccc(C)c(NC(=O)c2cnc(N3CCCC3)nc2C)c1 | inactive
42 | CCCCC(=O)NC(=S)Nc1c(C)cc(Br)cc1C | inactive
43 | O=C(NNC(=O)[C@@H]1CCCC[C@@H]1C(=O)O)c1cccs1 | inconclusive: 3.66 µM [rising, partial curve, poor fit]
44 | Cc1cccc2sc(NC(=O)CNS(=O)(=O)c3ccc(Br)s3)nc12 | inactive
45 | COc1ccc(Cl)cc1NC(=O)CSc1nc(N2CCCCC2)nc(N2CCCCC2)n1 | inactive
46 | CC(=O)c1c(C)nn(CC(O)COc2ccc3ccccc3c2)c1C (stereo unspecified) | active: 7.31 µM
